Results are given in words; binding and its absence hold for the method and conditions named. Some entries that bind do so weakly or less than the wild type.
Assays:
[1] = target: recombinant monovalent human Jagged1 protein (human) (UniProt P78504); experiment: SPR, antibody immobilised on CM5 chip, monovalent human Jagged1 flowed over
[2] = target: recombinant monovalent human Jagged1 protein (human) (UniProt P78504); experiment: Biacore, 64M51 immobilised on a CM5 chip, hJag1His injected over it (y axis has no printed unit)
[3] = target: recombinant monovalent human Jagged1 protein (human) (UniProt P78504); experiment: Biacore epitope competition, hJag1His captured on the 64R7 chip, 64M51 injected as solution antibody (100 nM per paragraph 236)
[4] = target: recombinant monovalent human Jagged1 protein (human) (UniProt P78504); experiment: Biacore epitope competition, hJag1His captured on the 64R1B chip, 64M51 injected as solution antibody (100 nM per paragraph 236)
[5] = target: recombinant monovalent human Jagged1 protein (human) (UniProt P78504); experiment: Biacore, 64R1B immobilised on a CM5 chip, hJag1His injected over it (y axis has no printed unit)
[6] = target: recombinant monovalent human Jagged1 protein (human) (UniProt P78504); experiment: Biacore epitope competition, hJag1His captured on the 64R7 chip, 64R1B injected as solution antibody (100 nM per paragraph 236)
[7] = target: recombinant monovalent human Jagged1 protein (human) (UniProt P78504); experiment: Biacore epitope competition, hJag1His captured on the 64M51 chip, 64R1B injected as solution antibody (100 nM per paragraph 236)

Sequences of proteins named here, by UniProt entry; tags and fusion partners are left off. A change or cut given only in a name is not applied to a line headed by its entry.
UniProt P78504: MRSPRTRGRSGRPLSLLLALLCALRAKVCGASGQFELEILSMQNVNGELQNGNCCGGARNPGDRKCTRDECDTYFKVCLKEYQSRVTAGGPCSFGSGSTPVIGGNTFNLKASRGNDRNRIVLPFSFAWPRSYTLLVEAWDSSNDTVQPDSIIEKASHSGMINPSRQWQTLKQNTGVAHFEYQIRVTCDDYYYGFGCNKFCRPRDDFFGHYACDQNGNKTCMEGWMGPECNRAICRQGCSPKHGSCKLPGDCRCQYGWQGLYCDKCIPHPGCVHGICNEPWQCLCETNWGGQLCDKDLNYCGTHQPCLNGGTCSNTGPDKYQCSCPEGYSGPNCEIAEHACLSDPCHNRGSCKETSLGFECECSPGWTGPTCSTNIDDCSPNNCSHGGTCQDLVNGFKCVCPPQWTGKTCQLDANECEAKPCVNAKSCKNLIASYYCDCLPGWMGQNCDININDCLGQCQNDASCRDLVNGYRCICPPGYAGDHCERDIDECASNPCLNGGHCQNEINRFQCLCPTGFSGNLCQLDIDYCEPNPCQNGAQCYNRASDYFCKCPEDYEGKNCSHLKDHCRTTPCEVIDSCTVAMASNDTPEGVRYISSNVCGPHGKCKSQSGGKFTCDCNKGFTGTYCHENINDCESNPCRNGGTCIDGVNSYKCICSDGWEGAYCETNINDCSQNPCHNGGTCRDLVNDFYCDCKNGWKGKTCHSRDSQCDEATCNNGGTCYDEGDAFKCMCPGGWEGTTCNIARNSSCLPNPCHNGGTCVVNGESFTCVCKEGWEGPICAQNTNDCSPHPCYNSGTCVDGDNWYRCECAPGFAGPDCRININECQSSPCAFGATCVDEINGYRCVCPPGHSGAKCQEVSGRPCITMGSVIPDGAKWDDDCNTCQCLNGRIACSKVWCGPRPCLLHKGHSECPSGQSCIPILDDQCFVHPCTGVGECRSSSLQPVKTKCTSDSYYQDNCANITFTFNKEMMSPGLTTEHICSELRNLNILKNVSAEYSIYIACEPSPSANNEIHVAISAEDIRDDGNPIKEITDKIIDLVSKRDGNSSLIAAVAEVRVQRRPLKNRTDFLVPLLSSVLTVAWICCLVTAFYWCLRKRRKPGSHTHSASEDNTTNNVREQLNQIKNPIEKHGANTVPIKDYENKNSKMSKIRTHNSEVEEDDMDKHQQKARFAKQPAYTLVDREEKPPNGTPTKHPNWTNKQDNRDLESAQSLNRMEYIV

Measured: binding

B1: antibody 64M51 (antibody, mouse IgG1, kappa, V domains shown)
VH: QVQLKQSGAELVRPGTSVKLSCKTSGYIFTSYWIHWVKQRSGQGLEWIARIYPGIGSTYYNEKFKDKATLTADKSSSTAYMQLSSLKSEDSAVYFCAKNGGFFDYWGQGTTLTVSS
VL: DIVLTQSPASLAVSLGQRATISCRASESVDSYGNSFMHWYQQKPGQPPKLLIYRASNLESGIPARFSGSGSRTDFTLTINPVEADDVATYYCQQSNEDPWTFGGGTKLEIKR
notes: Mouse hybridoma monoclonal raised against mouse Jagged1 ECD-His; also called anti-Jagged 64M51; ATCC PTA-10468
binds: [1] | [2] | [3] | [4]

B2: 64R1B IgG2 antibody (antibody, V domains shown)
VH: QVQLQESGPGLVKPSGTLSLTCTVSGDSISSSNWWSWVRQPPGQGLEWIGEIFHGENTNYNPSLKSRVTISVDKSKNQISLNLTSATAADTAVYYCARNPGIGAAKFDSWGQGTLVTVSS
VL: DIVMTQTPLSLSVTPGQPASISCKSSQSLLHSDGKTYLYWYLQKPGQPPQLLIYEVSNRFSGVPDRFSGSGSGTDFTLKISRVEAEDVGVYYCMQHIDFPFTFGQGTKLEIKR
notes: Human IgG2 / kappa, expressed in CHO cells; also called antibody 64R1B; ATCC PTA-10469
binds: [1] | [5] | [6] | [7]

Source: patent US20150197561A1 (ONCOMED PHARMACEUTICALS, published 2015)
